Values quoted from earlier work as cited in patent US20240117436A1, “METHODS OF TREATING LIPEDEMA INCLUDING AKR1C2 AS A THERAPEUTIC TARGET” (MAGI EUREGIO SCS, priority 2021, published 2024).
At least one compound was matched to its structure with a doubt left.

Target: T1, AKR1C1 (Homo sapiens, UniProt Q04828)
T1 sequence (Q04828 1-323): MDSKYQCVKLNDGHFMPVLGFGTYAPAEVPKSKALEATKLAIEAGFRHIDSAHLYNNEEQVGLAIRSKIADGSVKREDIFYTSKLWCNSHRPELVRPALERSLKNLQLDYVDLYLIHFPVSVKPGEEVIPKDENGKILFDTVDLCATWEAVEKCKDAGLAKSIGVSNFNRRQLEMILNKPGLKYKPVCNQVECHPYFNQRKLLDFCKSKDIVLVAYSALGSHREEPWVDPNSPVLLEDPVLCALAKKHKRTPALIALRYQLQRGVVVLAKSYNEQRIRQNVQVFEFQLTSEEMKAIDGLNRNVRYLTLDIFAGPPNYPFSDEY
Conditions: AKR1C1, known from the literature

Question: Which “Enzyme activity (inhibition/activation)” value does the source give for `O=C1Nc2ccc(Cl)cc2C(c2ccccc2)=NC1O` (stereo not shown) [Oxazepam] here?
Answer: inhibition
